Laboratory results: the supplement of paper PMC8975748
Where a name gives a salt, the structure may show the parent alone. ± gives the standard deviation of the averaged measurements. The list shows a part of the results. These are raw signals, not scaled to a control.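 The yeast community starts from one strain carrying four plasmids, each with an amino-acid or uracil synthesis gene and a fluorescent protein. Random plasmid loss creates mixed prototroph and auxotroph subpopulations. Cells were fixed and counted by automated confocal fluorescence imaging, and DMSO-treated wells served as the vehicle reference.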

Tested on: Saccharomyces cerevisiae BY4741 SeMeCo community
Assay: imaged cell count per well (cells); higher = more cells
Conditions: 10 µM; 24 h; SM minimal medium
Method: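 Same SeMeCo high-content imaging drug screen: Selleck FDA-approved drugs at 10 µM, 24 h in SM medium, 384-well plates, 3 replicates.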

Row | SMILES | imaged cell count per well
1 | Cc1ccnc(NS(=O)(=O)c2ccc(N)cc2)n1 [Sulfamerazine] | 21700 ± 6500
2 | N[C@@H](CCC(=O)O)C(=O)O [(S)-Glutamic acid] | 20400 ± 7500
3 | CC[C@H]1OC(=O)[C@H](C)[C@@H](O[C@H]2C[C@@](C)(OC)[C@@H](O)[C@H](C)O2)[C@H](C)[C@@H](O[C@@H]2O[C@H](C)C[C@H](N(C)C)[C@H]2O)[C@](C)(O)C[C@@H](C)C(=O)[C@H](C)[C@@H](O)[C@]1(C)O [Erythromycin] | 27200 ± 540
4 | CN[C@@H]1[C@H](O[C@H]2[C@H](O[C@H]3[C@H](O)[C@@H](O)[C@H](NC(=N)N)[C@@H](O)[C@@H]3NC(=N)N)O[C@@H](C)[C@]2(O)CO)O[C@@H](CO)[C@H](O)[C@H]1O [Dihydrostreptomycin sulfate] | 20200 ± 6800
5 | CCCC(=O)OCOC(=O)C1=C(C)NC(C)=C(C(=O)OC)C1c1cccc(Cl)c1Cl (centres undefined) [Clevidipine Butyrate] | 23900 ± 4900
6 | C[C@H]1[C@H](NC(=O)/C(=N\OC(C)(C)C(=O)O)c2csc(N)n2)C(=O)N1S(=O)(=O)O [Aztreonam] | 19300 ± 4300
7 | Oc1c(Cl)cc(Cl)c(Cl)c1Cc1c(O)c(Cl)cc(Cl)c1Cl [Hexachlorophene] | 3630 ± 640
8 | O=c1ccc2ccc(OCCCCN3CCN(c4cccc5sccc45)CC3)cc2[nH]1 [Brexpiprazole] | 26900 ± 2900
9 | C[C@@H]1C/C=C/C=C/C=C/C=C/[C@H](O[C@@H]2O[C@H](C)[C@@H](O)[C@H](N)[C@@H]2O)C[C@@H]2O[C@](O)(C[C@@H](O)C[C@H]3O[C@@H]3/C=C/C(=O)O1)C[C@H](O)[C@H]2C(=O)O [Natamycin] | 2130 ± 540
